# The M2OR odorant receptor database
# Chains of the proteins cited; added tags and fusions are not shown. A line that says so, or that is headed by a name, gives the form on record, which may keep a tag or linker.
# O51L1, as listed by the source: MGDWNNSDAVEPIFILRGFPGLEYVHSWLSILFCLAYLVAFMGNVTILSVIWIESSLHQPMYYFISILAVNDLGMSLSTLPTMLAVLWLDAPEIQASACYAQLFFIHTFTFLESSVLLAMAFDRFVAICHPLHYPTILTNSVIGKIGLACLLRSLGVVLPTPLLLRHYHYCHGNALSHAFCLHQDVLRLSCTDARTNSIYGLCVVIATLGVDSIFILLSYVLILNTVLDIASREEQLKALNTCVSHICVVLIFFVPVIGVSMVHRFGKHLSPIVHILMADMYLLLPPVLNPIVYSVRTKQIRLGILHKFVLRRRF
# O52E8, as listed by the source: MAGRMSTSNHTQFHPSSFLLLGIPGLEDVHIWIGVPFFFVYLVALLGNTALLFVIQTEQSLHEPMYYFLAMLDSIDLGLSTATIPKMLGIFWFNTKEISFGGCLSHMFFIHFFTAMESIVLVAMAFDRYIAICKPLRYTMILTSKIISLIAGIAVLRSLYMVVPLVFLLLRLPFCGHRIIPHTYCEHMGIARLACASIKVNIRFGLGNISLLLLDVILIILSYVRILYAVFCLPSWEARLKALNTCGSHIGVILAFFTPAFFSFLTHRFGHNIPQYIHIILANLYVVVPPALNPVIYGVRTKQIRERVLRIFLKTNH
# O52E1, as listed by the source: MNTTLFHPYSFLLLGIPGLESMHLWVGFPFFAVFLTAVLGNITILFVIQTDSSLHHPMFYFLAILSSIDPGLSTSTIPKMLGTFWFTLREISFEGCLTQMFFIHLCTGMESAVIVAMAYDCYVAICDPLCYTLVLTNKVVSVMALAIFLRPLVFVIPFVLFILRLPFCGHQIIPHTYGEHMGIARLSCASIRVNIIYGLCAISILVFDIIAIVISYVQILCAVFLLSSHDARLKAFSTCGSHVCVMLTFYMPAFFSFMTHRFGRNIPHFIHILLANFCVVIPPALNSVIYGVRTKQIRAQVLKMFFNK
# O51V1, as listed by the source: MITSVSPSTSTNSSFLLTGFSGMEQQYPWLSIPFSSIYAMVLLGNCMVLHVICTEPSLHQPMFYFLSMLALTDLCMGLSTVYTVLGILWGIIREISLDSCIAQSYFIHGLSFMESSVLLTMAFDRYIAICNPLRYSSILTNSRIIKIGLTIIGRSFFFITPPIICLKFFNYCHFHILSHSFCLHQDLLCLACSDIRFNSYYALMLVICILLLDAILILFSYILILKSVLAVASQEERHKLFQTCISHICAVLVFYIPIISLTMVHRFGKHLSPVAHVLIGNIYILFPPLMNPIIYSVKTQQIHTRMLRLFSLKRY
# O52E5, as listed by the source: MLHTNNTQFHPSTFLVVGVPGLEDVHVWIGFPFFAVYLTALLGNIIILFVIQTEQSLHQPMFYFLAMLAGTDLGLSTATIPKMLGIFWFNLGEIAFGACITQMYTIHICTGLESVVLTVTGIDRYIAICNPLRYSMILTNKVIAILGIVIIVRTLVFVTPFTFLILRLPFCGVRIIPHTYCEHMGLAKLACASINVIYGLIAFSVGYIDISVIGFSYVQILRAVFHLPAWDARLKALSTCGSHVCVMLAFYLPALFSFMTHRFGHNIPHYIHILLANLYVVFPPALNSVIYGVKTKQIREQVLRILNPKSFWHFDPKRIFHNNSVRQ
# O52E4, as listed by the source: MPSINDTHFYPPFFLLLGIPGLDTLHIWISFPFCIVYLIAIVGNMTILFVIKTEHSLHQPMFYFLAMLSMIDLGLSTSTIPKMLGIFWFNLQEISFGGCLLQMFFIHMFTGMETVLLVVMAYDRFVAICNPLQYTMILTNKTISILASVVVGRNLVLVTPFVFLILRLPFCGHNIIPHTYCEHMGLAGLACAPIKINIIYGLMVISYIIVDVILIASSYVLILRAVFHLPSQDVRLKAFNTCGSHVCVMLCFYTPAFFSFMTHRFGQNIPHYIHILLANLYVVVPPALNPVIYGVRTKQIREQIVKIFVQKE
# O52E2, as listed by the source: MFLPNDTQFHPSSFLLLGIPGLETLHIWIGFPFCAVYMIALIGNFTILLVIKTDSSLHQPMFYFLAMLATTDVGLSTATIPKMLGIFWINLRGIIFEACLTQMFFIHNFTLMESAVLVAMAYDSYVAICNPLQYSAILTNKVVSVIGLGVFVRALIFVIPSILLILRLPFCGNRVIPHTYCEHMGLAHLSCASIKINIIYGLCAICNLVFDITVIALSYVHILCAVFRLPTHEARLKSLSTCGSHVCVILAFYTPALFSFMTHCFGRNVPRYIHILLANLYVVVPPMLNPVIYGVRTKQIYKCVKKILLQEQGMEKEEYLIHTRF
# Changes are numbered by the printed parent chain. This is a selection; strong and weak results do not stand in their true shares. The calls were merged from several studies; some rest on single wells. Some of the results follow.
# How the values were obtained:
# Conditions in all cases: stereoisomer not certain
# O51G1 = tested on: T1, O51G1
# T1 sequence (whole entry): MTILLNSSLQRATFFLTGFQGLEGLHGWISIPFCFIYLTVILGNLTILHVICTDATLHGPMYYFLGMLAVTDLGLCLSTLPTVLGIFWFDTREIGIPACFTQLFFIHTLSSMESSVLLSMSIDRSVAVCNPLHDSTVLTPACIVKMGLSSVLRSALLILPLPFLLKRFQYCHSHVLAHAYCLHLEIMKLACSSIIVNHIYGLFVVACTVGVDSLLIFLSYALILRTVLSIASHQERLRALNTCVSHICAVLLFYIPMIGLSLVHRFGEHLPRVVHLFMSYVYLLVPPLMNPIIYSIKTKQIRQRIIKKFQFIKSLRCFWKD
# Method in brief: (§1)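 Transient luciferase assays in mammalian cell lines were common, though methods varied by source. The values come from published papers and their supplementary material, with extra details from the original authors when needed. Responsive refers to a measured signal the original authors judged statistically different from baseline, and non-responsive (inactive) to the remainder.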
# O51G2 = tested on: T2, O51G2
# T2 sequence (whole entry): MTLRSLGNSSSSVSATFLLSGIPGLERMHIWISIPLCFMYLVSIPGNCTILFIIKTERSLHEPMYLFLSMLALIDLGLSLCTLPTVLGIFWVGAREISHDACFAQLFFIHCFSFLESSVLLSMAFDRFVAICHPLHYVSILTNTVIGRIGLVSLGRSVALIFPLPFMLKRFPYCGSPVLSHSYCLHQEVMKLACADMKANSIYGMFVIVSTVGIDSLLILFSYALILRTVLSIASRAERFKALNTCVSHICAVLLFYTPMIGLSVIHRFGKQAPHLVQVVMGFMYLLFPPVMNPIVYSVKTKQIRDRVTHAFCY
# Method in brief: as §1
# O51J1 = tested on: T3, O51J1
# T3 sequence (whole entry): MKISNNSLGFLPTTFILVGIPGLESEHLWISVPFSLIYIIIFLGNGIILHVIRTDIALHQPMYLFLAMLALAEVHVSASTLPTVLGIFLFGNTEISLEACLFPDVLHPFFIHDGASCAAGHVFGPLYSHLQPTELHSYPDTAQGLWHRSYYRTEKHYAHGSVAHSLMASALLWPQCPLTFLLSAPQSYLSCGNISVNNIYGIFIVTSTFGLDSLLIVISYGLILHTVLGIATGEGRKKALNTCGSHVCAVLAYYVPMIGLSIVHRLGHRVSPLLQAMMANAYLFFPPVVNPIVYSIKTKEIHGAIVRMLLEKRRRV
# Method in brief: as §1
# O51L1 [1] = tested on: T4, O51L1
# T4 sequence (whole entry): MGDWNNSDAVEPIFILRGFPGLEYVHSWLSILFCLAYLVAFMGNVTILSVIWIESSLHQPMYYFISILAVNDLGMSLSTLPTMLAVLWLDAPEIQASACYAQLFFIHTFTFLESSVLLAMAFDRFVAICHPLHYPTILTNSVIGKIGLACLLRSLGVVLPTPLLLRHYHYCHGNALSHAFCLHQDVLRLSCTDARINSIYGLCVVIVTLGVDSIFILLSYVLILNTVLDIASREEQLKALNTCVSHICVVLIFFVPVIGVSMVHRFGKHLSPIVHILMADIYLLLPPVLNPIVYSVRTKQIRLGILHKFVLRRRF
# Method in brief: as §1
# O51L1 [2] = tested on: T5, O51L1; remark: listed apart in the source
# T5 sequence (whole entry): T4 sequence (whole entry) with I196T, V207A, I281M
# Method in brief: as §1
# O51M1 = tested on: T6, O51M1
# T6 sequence (whole entry): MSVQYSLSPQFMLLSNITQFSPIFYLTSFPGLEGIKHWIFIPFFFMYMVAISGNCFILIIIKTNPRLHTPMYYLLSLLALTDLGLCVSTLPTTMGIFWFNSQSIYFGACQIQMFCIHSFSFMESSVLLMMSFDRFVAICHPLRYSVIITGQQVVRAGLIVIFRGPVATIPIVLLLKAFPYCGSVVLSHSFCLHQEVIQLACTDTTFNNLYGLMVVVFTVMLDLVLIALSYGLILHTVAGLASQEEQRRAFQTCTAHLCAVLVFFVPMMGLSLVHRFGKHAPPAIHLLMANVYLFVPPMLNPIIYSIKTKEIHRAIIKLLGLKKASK
# Method in brief: as §1
# O51Q1 = tested on: T7, O51Q1
# T7 sequence (whole entry): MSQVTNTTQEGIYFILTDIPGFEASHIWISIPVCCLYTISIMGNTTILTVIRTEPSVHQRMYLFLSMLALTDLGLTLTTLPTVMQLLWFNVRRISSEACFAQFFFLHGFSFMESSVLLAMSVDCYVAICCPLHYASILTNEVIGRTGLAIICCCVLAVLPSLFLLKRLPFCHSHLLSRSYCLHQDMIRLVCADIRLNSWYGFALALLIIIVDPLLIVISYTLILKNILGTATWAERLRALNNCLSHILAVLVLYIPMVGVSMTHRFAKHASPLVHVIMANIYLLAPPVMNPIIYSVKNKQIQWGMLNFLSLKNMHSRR
# Method in brief: as §1
# O51T1 = tested on: T8, O51T1
# T8 sequence (whole entry): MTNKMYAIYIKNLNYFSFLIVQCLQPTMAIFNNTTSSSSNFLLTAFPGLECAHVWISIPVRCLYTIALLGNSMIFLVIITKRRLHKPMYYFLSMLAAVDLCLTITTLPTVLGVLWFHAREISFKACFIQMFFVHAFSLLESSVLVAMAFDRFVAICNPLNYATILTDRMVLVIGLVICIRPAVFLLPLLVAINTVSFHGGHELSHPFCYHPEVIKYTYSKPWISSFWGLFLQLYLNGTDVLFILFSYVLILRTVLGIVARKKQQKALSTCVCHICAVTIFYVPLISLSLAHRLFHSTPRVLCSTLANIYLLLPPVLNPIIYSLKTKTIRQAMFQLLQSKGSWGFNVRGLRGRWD
# Method in brief: as §1
# O51V1 [3] = tested on: T9, O51V1
# T9 sequence (whole entry): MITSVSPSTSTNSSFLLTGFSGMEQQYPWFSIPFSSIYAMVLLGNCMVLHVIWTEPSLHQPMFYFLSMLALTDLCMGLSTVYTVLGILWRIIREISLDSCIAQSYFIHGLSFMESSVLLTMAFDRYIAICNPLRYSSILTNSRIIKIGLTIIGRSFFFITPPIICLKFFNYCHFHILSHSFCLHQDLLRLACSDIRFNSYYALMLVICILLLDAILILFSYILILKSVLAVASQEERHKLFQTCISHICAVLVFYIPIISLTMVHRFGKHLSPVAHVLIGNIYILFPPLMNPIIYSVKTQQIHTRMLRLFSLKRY
# Method in brief: as §1
# O51V1 [4] = tested on: T10, O51V1; remark: listed apart in the source
# T10 sequence (whole entry): T9 sequence (whole entry) with F30L, W53C, R90G, R189C
# Method in brief: as §1
# O52A1 = tested on: T11, O52A1
# T11 sequence (whole entry): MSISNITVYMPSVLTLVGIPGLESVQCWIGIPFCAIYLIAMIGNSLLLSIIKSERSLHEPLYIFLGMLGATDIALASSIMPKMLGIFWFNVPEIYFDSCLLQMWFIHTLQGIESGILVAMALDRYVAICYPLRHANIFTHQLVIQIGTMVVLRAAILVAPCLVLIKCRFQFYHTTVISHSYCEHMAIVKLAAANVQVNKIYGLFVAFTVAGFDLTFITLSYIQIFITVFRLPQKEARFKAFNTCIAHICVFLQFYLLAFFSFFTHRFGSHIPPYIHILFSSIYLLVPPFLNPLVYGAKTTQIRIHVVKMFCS
# Method in brief: as §1
# O52B2 = tested on: T12, O52B2
# T12 sequence (whole entry): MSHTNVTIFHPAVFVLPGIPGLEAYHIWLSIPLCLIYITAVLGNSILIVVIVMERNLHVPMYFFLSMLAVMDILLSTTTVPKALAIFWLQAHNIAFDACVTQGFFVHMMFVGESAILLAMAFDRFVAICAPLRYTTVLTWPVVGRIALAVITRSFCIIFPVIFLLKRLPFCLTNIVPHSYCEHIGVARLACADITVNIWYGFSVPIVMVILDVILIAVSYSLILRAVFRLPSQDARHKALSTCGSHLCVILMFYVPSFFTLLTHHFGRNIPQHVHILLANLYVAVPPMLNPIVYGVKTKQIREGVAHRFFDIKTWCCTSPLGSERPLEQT
# Method in brief: as §1
# O52B6 = tested on: T13, O52B6
# T13 sequence (whole entry): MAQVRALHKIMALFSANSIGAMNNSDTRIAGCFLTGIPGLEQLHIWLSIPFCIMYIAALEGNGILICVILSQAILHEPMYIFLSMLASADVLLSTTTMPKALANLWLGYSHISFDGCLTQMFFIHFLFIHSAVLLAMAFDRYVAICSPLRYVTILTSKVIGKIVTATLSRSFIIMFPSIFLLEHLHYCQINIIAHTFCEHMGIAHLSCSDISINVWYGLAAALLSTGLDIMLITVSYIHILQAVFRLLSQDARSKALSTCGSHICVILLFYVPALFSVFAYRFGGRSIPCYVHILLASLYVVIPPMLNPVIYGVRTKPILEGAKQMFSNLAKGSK
# Method in brief: as §1
# O52E1 = tested on: O52E1
# Method in brief: as §1
# O52E2 = tested on: O52E2
# Method in brief: as §1
# O52E4 = tested on: O52E4
# Method in brief: as §1
# O52E5 = tested on: O52E5
# Method in brief: as §1
# O52E8 = tested on: O52E8
# Method in brief: as §1
# O52I2 = tested on: T14, O52I2
# T14 sequence (whole entry): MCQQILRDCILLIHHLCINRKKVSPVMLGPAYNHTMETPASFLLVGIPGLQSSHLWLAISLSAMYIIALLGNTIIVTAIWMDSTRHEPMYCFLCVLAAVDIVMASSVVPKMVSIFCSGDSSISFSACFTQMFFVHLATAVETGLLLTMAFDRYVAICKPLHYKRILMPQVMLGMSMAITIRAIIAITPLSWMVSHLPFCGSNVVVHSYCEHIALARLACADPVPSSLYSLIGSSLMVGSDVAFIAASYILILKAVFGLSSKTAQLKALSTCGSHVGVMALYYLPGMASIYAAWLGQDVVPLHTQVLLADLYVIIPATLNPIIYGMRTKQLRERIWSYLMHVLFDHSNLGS
# Method in brief: as §1
# 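Also: active if original authors judged signal statistically different from baseline.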
SMILES,odorant receptor agonist call (O51G1),odorant receptor agonist call (O51G2),odorant receptor agonist call (O51J1),odorant receptor agonist call (O51L1 [1]),odorant receptor agonist call (O51L1 [2]),odorant receptor agonist call (O51M1),odorant receptor agonist call (O51Q1),odorant receptor agonist call (O51T1),odorant receptor agonist call (O51V1 [3]),odorant receptor agonist call (O51V1 [4]),odorant receptor agonist call (O52A1),odorant receptor agonist call (O52B2),odorant receptor agonist call (O52B6),odorant receptor agonist call (O52E1),odorant receptor agonist call (O52E2),odorant receptor agonist call (O52E4),odorant receptor agonist call (O52E5),odorant receptor agonist call (O52E8),odorant receptor agonist call (O52I2)
CC12CCC(C1)C(C)(C)C2=O (configuration not stated),inactive,inactive,inactive,inactive,inactive,active,inactive,inactive,inactive,inactive,inactive,inactive,inactive,inactive,inactive,active,active,inactive,inactive
CCCCCCOC(=O)CCC,inactive,inactive,inactive,inactive,inactive,inactive,inactive,inactive,inactive,inactive,inactive,inactive,inactive,inactive,inactive,inactive,inactive,inactive,inactive
CCCCCCCCCCC=O,inactive,inactive,inactive,inactive,inactive,inactive,inactive,inactive,inactive,active,inactive,inactive,inactive,inactive,inactive,inactive,inactive,inactive,inactive
